We go through 34 compounds from PubChem BioAssay AID256 (DTP/NCI, 2004).

The list does not hold the whole screen: it is rich in T/C values a quarter to a half above the control, in often repeated tests (any T/C) and in doses without a T/C. Other doses and runs of a compound stand elsewhere. T/C gives the treated animals as a percentage of the vehicle group. Some entries give survivors of the animals treated and no T/C: the source holds a T/C of zero for them, seemingly a mark for toxic or unscored doses. Some survivor counts are full or nearly so, which does not show that the dose was tolerated: survival well below the control is almost never listed, so the zero probably covers shortened survival too. Counts of survivors are from the toxicity check (mostly the fifth day) where no day follows; animals may have died later. Schedule codes are those of the source, taken here to give the interval after Q, in days (D) or hours (H), and the number of doses after X. Some doses were run more than once; the values are given in rising order. For survival time, the PubChem record calls one and a half times the control and up active, and a quarter to a half above the control has no call in these data; cut-offs in other NCI protocols can differ. Some T/C values carry the count of animals alive at the toxicity check (mostly the fifth day); without a count, all were alive then.

The test system of this experiment is CD2F1 mice, L1210 leukemia ip, survival T/C. The experiment in a line: NCI In Vivo Anticancer Drug Screen. Data for tumor model L1210 Leukemia (intraperitoneal) in CD2F1 (CDF1) mice. The note with it: higher T/C = longer survival. The method, boiled down: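 In this screen, transplantable tumors were grown in mice given either the compound or its vehicle. Results were expressed as the treated measurement relative to the control measurement.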

[1] abbreviates: T/C endpoint: mean survival time, dose: 100.0 mg/kg/injection, schedule: Q01DX009 (ip), vehicle: saline with Tween-80.
Setting [2] is: T/C endpoint: mean survival time, dose: 200.0 mg/kg/injection, schedule: Q01DX009 (ip), vehicle: saline with Tween-80.
Where [3] appears, read: T/C endpoint: mean survival time, dose: 400.0 mg/kg/injection, schedule: Q01DX009 (ip), vehicle: saline with Tween-80.
Setting [4] is: T/C endpoint: mean survival time, dose: 400.0 mg/kg/injection, schedule: Q04DX003 (ip), vehicle: saline with Tween-80.
Setting [5] is: T/C endpoint: mean survival time, dose: 75.0 mg/kg/injection, schedule: Q01DX001 (ip), vehicle: saline.
Where [6] appears, read: T/C endpoint: mean survival time, dose: 150.0 mg/kg/injection, schedule: Q01DX001 (ip), vehicle: saline.
Where [7] appears, read: T/C endpoint: mean survival time, dose: 300.0 mg/kg/injection, schedule: Q01DX001 (ip), vehicle: saline.
Where [8] appears, read: T/C endpoint: mean survival time, dose: 400.0 mg/kg/injection, schedule: Q04DX003 (ip), vehicle: saline.
[9] abbreviates: T/C endpoint: mean survival time, dose: 200.0 mg/kg/injection, schedule: Q04DX003 (ip), vehicle: saline.

`[CH3][Sn]([CH3])([Cl])[c]1cc[c]([Sn]([CH3])([CH3])[Cl])cc1`: the survivor count reads like this: (T/C endpoint: median survival time, dose: 4.0 mg/kg/injection, schedule: Q01DX009 (ip), vehicle: saline) 0 of 6; (T/C endpoint: median survival time, dose: 8.0 mg/kg/injection, schedule: Q01DX009 (ip), vehicle: saline) 0 of 6; (T/C endpoint: median survival time, dose: 16.0 mg/kg/injection, schedule: Q01DX009 (ip), vehicle: saline) 0 of 6.

Turning to `O=Cc1ccc([N+](=O)[O-])s1`, the survivor count under setting [1] is 1 of 6.

As for `CCOC(=O)Nc1cc2c(c(N)n1)N=C(c1ccc(Cl)cc1Cl)CN2`, the survivor count is, setting by setting: (T/C endpoint: median survival time, dose: 25.0 mg/kg/injection, schedule: Q01DX009 (ip), vehicle: saline with Tween-80) 6 of 6; (T/C endpoint: median survival time, dose: 50.0 mg/kg/injection, schedule: Q01DX009 (ip), vehicle: saline with Tween-80) 4 of 6.

Consider `Nc1nc(OCc2ccccc2)ncc1C(=O)NCC(=O)O`, for which the survivor count under setting [1] is reported as 3 of 6, the survivor count under setting [2] was 1 of 6 and the survivor count under setting [3] is 1 of 6.

With `Cc1ccc(S(=O)(=O)O)cc1.Cc1ccc(S(=O)(=O)O)cc1.[NH-]C1CCCCC1[NH-].[Pt+2]`, the T/C (T/C endpoint: mean survival time, dose: 0.5 mg/kg/injection, schedule: Q04DX003 (ip), vehicle: other) was 132 % of control and the T/C (T/C endpoint: mean survival time, dose: 1.0 mg/kg/injection, schedule: Q04DX003 (ip), vehicle: other) is 144 % of control.

As for `CN1C(C)(C)CC(CN2c3ccccc3Sc3ccccc32)C1(C)C` (stereo unspecified), the survivor count under setting [4] was 0 of 6.

With `c1ccc2c(c1)nnn1c3cnccc3nc21`, the survivor count is, setting by setting: (T/C endpoint: mean survival time, dose: 25.0 mg/kg/injection, schedule: Q01DX009 (ip), vehicle: saline with Tween-80) 4 of 6; (T/C endpoint: mean survival time, dose: 40.0 mg/kg/injection, schedule: Q01DX001 (ip), vehicle: saline) 0 of 6; (T/C endpoint: mean survival time, dose: 50.0 mg/kg/injection, schedule: Q01DX009 (ip), vehicle: saline with Tween-80) 0 of 6; under setting [5], 0 of 6; (T/C endpoint: mean survival time, dose: 80.0 mg/kg/injection, schedule: Q01DX001 (ip), vehicle: saline) 0 of 6; under setting [6], 0 of 6. Moreover, the survivor count under setting [7] was 0 of 6.

With `CC1CC2CCC1(CO)CN2` (stereo unspecified), the survivor count is listed as 0 of 6 under setting [5], 0 of 6 under setting [6] and 0 of 6 under setting [7].

For the compound `CCOC(=O)CCC(NC(=O)c1ccc(NCc2cnc3nc(N)nc(N)c3c2)cc1)C(=O)OCC` (stereo unspecified), the T/C is, setting by setting: (T/C endpoint: median survival time, dose: 0.25 mg/kg/injection, schedule: Q01DX005 (ip), vehicle: saline with Tween-80) 136 % of control; (T/C endpoint: median survival time, dose: 0.5 mg/kg/injection, schedule: Q01DX005 (ip), vehicle: saline with Tween-80) 137 % of control.

Regarding `COC(=O)c1ccccc1N1C(=O)C=CC1=O`, the survivor count (T/C endpoint: mean survival time, dose: 50.0 mg/kg/injection, schedule: Q04DX003 (ip), vehicle: saline with Tween-80) is 3 of 6.

As to `CSc1nc(NC(C)C)nc(NC(C)C)n1`, the survivor count under setting [8] was 2 of 6.

Regarding `O=C(O)C1CC(c2ccccc2)=NN1c1ccccc1` (stereo unspecified), the survivor count (T/C endpoint: mean survival time, dose: 400.0 mg/kg/injection, schedule: Q01DX009 (ip), vehicle: water) is on record as 0 of 6, 1 of 6, 2 of 6.

With `CN(C)CCSCC(=O)N1c2ccccc2Sc2ccccc21`, the survivor count by setting is: under setting [9], 1 of 6; under setting [8], 0 of 6.

Turning to `N#CCCCCCN=[N+]=[N-]`, under setting [7], the survivor count is listed as 0 of 6.

On to `COc1ccccc1NC(=O)Oc1ccc2ccccc2c1`, for which the survivor count (T/C endpoint: mean survival time, dose: 400.0 mg/kg/injection, schedule: Q04DX002 (ip), vehicle: saline with Tween-80) was 3 of 3.

As for `C1=C(c2ccc(-c3ccccc3)cc2)Nc2ccccc2S1`, the survivor count (T/C endpoint: mean survival time, dose: 400.0 mg/kg/injection, schedule: Q04DX002 (ip), vehicle: other) is reported as 0 of 3.

Consider `COc1ccc2c(c1)OC(C)(C)C(c1ccccc1)=C2c1ccc(OCCN2CCCC2)cc1`, for which the survivor count runs as follows: under setting [6], 0 of 6; under setting [7], 0 of 6.

On to `CCOC(=O)Cc1ccnc(C)c1`, for which the survivor count under setting [3] was 2 of 6.

Consider `CN(C)C(=O)Nc1cccc(OS(=O)(=O)N(C)C)c1`, for which the survivor count under setting [4] is on record as 3 of 6.

As to `CN(C)CC#N`, the survivor count (T/C endpoint: mean survival time, dose: 100.0 mg/kg/injection, schedule: Q04DX003 (ip), vehicle: saline) is given as 0 of 6; the survivor count under setting [9] is given as 0 of 6; the survivor count under setting [8] is listed as 0 of 6.

Take `BrCC[n+]1ccc(-c2cc[n+](CCBr)cc2)cc1`: the survivor count is given as 0 of 6 (T/C endpoint: mean survival time, dose: 100.0 mg/kg/injection, schedule: Q01DX001 (ip), vehicle: Klucel (hydroxypropylcellulose) (HPC)); 0 of 6 (T/C endpoint: mean survival time, dose: 200.0 mg/kg/injection, schedule: Q01DX001 (ip), vehicle: Klucel (hydroxypropylcellulose) (HPC)); 0 of 6 (T/C endpoint: mean survival time, dose: 400.0 mg/kg/injection, schedule: Q01DX001 (ip), vehicle: Klucel (hydroxypropylcellulose) (HPC)).

For `CCNc1nc(Cl)nc(NC(C)C)n1`, the survivor count under setting [3] is recorded as 1 of 6.

Take `Cc1cccc(C)c1NC(=O)CCl`: the survivor count (T/C endpoint: mean survival time, dose: 400.0 mg/kg/injection, schedule: Q01DX001 (ip), vehicle: saline with Tween-80) is listed as 0 of 6.

In the case of `O=C1c2ccccc2C(=O)c2c(O)c(S(=O)(=O)O)cc(O)c21`, the survivor count under setting [8] is given as 3 of 6.

As to `CC1(C(F)(F)F)CC(=O)NN1` (stereo unspecified), the survivor count by setting is: (T/C endpoint: mean survival time, dose: 200.0 mg/kg/injection, schedule: Q04DX003 (ip), vehicle: saline with Tween-80) 3 of 6; under setting [4], 0 of 6.

As to `[Cl][Pt+2][Cl].[NH-]C1CCCCC1C1CCCCC1[NH-]` (stereo unspecified), the T/C by setting is: (T/C endpoint: mean survival time, dose: 12.5 mg/kg/injection, schedule: Q04DX003 (ip), vehicle: distilled water + Tween-80) 141 % of control; (T/C endpoint: mean survival time, dose: 50.0 mg/kg/injection, schedule: Q04DX003 (ip), vehicle: distilled water + Tween-80) 133 % of control.

`CCCCCCCCCCCCN1CCCC(O)C1` (stereo unspecified): under setting [2], the survivor count was 0 of 6.

Turning to `Oc1cc(N2CC2)c(O)cc1N1CC1`, the T/C reads like this: (T/C endpoint: mean survival time, dose: 0.3 mg/kg/injection, schedule: Q01DX009 (ip), vehicle: saline) 141 % of control; (T/C endpoint: mean survival time, dose: 0.6 mg/kg/injection, schedule: Q01DX009 (ip), vehicle: saline) 137 % of control; (T/C endpoint: mean survival time, dose: 1.25 mg/kg/injection, schedule: Q01DX009 (ip), vehicle: saline) 127 % of control.

For `Cc1cn(C2CC(OS(C)(=O)=O)C(COC(c3ccccc3)(c3ccccc3)c3ccccc3)O2)c(=O)[nH]c1=O` (stereo unspecified), for the setting “T/C endpoint: mean survival time, dose: 100.0 mg/kg/injection, schedule: Q01DX005 (ip), vehicle: other”, the survivor count is on record as 6 of 6.

Regarding `COc1ccccc1-n1c(O)c(N=Nc2ccccc2)c(=O)n(-c2ccccc2)c1=S`, the survivor count (T/C endpoint: mean survival time, dose: 200.0 mg/kg/injection, schedule: Q04DX003 (ip), vehicle: acetone) is given as 5 of 6 and the survivor count (T/C endpoint: mean survival time, dose: 400.0 mg/kg/injection, schedule: Q04DX003 (ip), vehicle: acetone) is listed as 1 of 6.

Turning to `COc1cc2c(c(OC)c1OC)-c1ccc(SC)c(=O)cc1[C@@H](NC(=O)NCCCl)CC2`, the T/C is, setting by setting: (T/C endpoint: mean survival time, dose: 25.0 mg/kg/injection, schedule: Q01DX005 (ip), vehicle: water) 143 % of control; (T/C endpoint: mean survival time, dose: 25.0 mg/kg/injection, schedule: Q01DX009 (ip), vehicle: water) 136 % of control [5 of 6 alive]; (T/C endpoint: mean survival time, dose: 50.0 mg/kg/injection, schedule: Q01DX009 (ip), vehicle: water) 129 % of control [4 of 6 alive]. Besides, for the setting “T/C endpoint: mean survival time, dose: 100.0 mg/kg/injection, schedule: Q01DX009 (ip), vehicle: water”, the survivor count was 3 of 6.

For the compound `FC1CC=C(S)CC1` (stereo unspecified), the survivor count is listed as 1 of 6 (T/C endpoint: mean survival time, dose: 100.0 mg/kg/injection, schedule: Q01DX001 (ip), vehicle: saline); 0 of 6 (T/C endpoint: mean survival time, dose: 200.0 mg/kg/injection, schedule: Q01DX001 (ip), vehicle: saline); 1 of 6 (T/C endpoint: mean survival time, dose: 400.0 mg/kg/injection, schedule: Q01DX001 (ip), vehicle: saline).

Regarding `CCC(=O)NCCc1ccccc1`, the survivor count was 6 of 6 (T/C endpoint: mean survival time, dose: 100.0 mg/kg/injection, schedule: Q01DX001 (ip), vehicle: saline with Tween-80) and 2 of 6 under setting [3].

In the case of `CSc1[nH]c2ncnc(Cl)c2c1C#N`, the survivor count under setting [7] is 0 of 6.
